The values that follow come from publication PMC8833953.

By UniProt entry, the sequences of proteins in these tests, tags left out. Where a name states a change or a piece, a line headed by the entry shows the natural chain unless it says otherwise.
UniProt P67775: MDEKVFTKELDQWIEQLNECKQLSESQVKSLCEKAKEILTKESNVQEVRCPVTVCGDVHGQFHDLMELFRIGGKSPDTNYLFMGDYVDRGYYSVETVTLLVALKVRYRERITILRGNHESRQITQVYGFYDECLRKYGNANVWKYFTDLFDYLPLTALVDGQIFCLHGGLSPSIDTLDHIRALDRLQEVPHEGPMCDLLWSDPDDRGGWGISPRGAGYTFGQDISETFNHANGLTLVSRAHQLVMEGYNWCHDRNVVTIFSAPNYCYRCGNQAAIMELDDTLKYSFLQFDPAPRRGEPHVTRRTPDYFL
UniProt Q01105: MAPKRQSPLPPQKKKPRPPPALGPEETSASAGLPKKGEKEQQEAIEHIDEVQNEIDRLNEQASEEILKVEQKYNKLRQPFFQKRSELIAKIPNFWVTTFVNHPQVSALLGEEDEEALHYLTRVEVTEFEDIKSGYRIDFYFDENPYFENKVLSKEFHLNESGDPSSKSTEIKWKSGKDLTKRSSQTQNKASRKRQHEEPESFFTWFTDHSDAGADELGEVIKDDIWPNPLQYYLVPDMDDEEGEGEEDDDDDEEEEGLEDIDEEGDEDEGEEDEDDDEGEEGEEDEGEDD

These are yes or no findings as the source states them, for the method shown. Binding seen in cells or lysates may run through a third protein. A result given as binding can be weak or reduced; the word gives no strength.

For the assay, the target named is catalytic unit of PP2A (PP2Ac) (human (endogenous in OPM-2 and MM.1S)) (UniProt P67775). Kind of assay: co-IP; 500 ug lysate (50 mM HEPES pH 7.5, 150 mM NaCl, 1% Triton X-100, 10% glycerol) incubated with anti-PP2A (Millipore 05-421) or control IgG overnight at 4 C, protein A/G magnetic beads, blotted for I2PP2A and PP2Ac; OPM-2 ishGFI1 cells with or without dox (GFI1 KD); MM.1S EV and GFI1 o/e cells untreated or treated with THI (10 uM, 2 h) or SK1-I (5 uM, 2 h).

For I2PP2A/SET (from UniProt Q01105 1-290), the binding result was “binds”.
